Laboratory results taken from PubChem BioAssay AID2685 (National Center for Advancing Translational Sciences (NCATS), 2010).
Hit rate of the full screen: of about 320,000 compounds, about 2,100 (0.66%) were called active. Inconclusive results, whose numbers are uncertain, are shown with a selection of clear calls. Calls follow the shape of the dose curve; as a rule, active = well fitted inhibition curve with a large enough effect in the signal ratio, with a control signal flat (not every such curve was filed as active); inconclusive = small, poorly fitted or top-dose-only effect, or effect the other way, or a change in a side signal; inactive = flat fitted curve, though single readings scatter; the % refers to the signal ratio. Where the call is inconclusive, the potency comes from a doubtful curve fit.

experiment: qHTS Assay for Lipid Storage Modulators in Drosophila S3 Cells; conditions: BODIPY lipid droplet fluorescence, 18-24 h, cells fed with added oleic acid; lipid storage change, negative = inhibition: at 46.1 µM (top of the series) unless noted
In short: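 Drosophila S3 cells got compounds at several concentrations plus oleic acid (400 uM solution). Laser-scanning cytometry with 488 nm excitation read lipid droplets at 500-530 nm and cells at 575-640 nm. Percent activity was relative to 20 uM Triacsin C.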
% is scaled to controls: 0 for no effect and ±100 for the full control effect; potency is read from the fitted curve at half-maximal effect.

Lipid storage change, negative = inhibition, inactive:
COc1ccc(S(=O)(=O)N2CCCCC2)cc1NCC(=O)Nc1ccc(C)cc1

Lipid storage change, negative = inhibition, inconclusive:
CCOCC(=O)N1CCN(c2ccccc2OC)CC1 2.83%
Cc1ccc(-c2nnn(CC(=O)N(Cc3cccs3)C(C(=O)NCC3CCCO3)c3ccco3)n2)o1 (configuration not stated) -21.6%
Cc1c(C)n(CC(O)CN2CCCCC2)c2ccccc12 (configuration not stated) -30.6%
CC1(C)CC(=O)C=C(NCCO)C1 -37.1%
CCOC(=O)c1cccc(NC(=O)C2(S(=O)(=O)c3ccc(C)cc3)CC2)c1 -7.37%
CSCc1cc(N(C)C)nc(SCc2ccc(Cl)c(Cl)c2)n1 -50.1%
CCOc1ccc(NC(=O)C2CCN(S(=O)(=O)c3ccc4c(c3)CC(C)N4C(C)=O)CC2)cc1 (configuration not stated) 5.66%
CC(OC(=O)c1cccc(S(=O)(=O)N2CCN(C)CC2)c1)C(=O)Nc1ccc(C(N)=O)cc1 (configuration not stated) -6.62%
CCOC(=O)c1cnc(SCC(=O)OCC(=O)NC2CCS(=O)(=O)C2)nc1N (configuration not stated) 17.2%
O=C(NCCN1CCOCC1)c1cc2cc(Br)ccc2oc1=O -40.8%
O=C1/C(=C/c2ccc([N+](=O)[O-])cc2)CCc2ccccc21 12.3%
Cc1nc2c(Br)c(C)nn2c2c1CCC2 5.42%
Cc1ccc2nc(SC(C)C(=O)N3CCCCC3)[nH]c2c1 (configuration not stated) 40.5%
CCOC(=O)c1c(-c2cccc3ccccc23)csc1NC(=O)C1C2CCC(O2)C1C(=O)O (configuration not stated) -11.3%
CCn1c(COc2ccccc2)nnc1SCC(=O)Nc1cc(C)ccc1OC -25.9%

Fetched by compound from the list above:
Lipid storage change, negative = inhibition, inconclusive:
CCOC(=O)c1cnc(SCC(=O)OCC(=O)NC2CCS(=O)(=O)C2)nc1N (configuration not stated) 17.2%
Cc1c(C)n(CC(O)CN2CCCCC2)c2ccccc12 (configuration not stated) -30.6%

Following part:

Potency, inconclusive:
CCOC(=O)n1c(SCC(=O)N(CC)CC)nc2ccccc21 6.51 µM [rising, single point]
COc1ccc(CCC(C)N(C)Cc2ccccc2)cc1 (configuration not stated) 6.51 µM [activator, full curve]
C=CCn1c(SCC(=O)NC)nnc1C12CC3CC(CC(C3)C1)C2 0.058 µM [falling, full curve, poor fit]
O=C(Cn1ccc(NC(=O)OCc2ccccc2)nc1=O)NCc1ccc2c(c1)OCO2 0.116 µM [falling, full curve, poor fit]
CCOc1ccc(C(=O)NC2CCN(CC(=O)NCc3ccccc3)CC2)cc1 29.1 µM [activator, single point]
Cc1cc(C)n(-c2ccc(C(=O)OCc3ccccc3)cc2)n1 4.11 µM [activator, partial curve]
